Measured data: PubChem BioAssay AID1508597 (Cure First, 2020)
Shown is a random part of the about 2,100 reagents, in one setting of the screen. 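Calls flag viability under 80% in either arm, not effects specific to rucaparib; the reference for percent is not stated.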 Entries without a mark were called inactive. Some reagents were tested in more than one well and are listed for each. Not stated in the record: the 100% reference.

Assay: 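Survival screen with siRNA in ovarian cancer cells derived from patients, with or without rucaparib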 (primary screen)
Cell system: human ovarian carcinoma lines grown from tumours: OCI-P5x (papillary serous) and OCI-C5x (clear cell)
Knock-down reagent: siRNA pool against human genes, 1.25 pmol siRNA per well
Time to read-out: 72 h or 96 h, depending on the cell culture
Challenge: rucaparib 20 µM (about IC30) or vehicle, present until read-out
Rucaparib or vehicle: Vehicle
Cell line: OCI-C5x (clear cell)
Measurement: 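ATP luminescence measured at 72 or 96 h according to the culture, then normalised and expressed as percent viability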
Scale: viability, normalised: higher = more viable cells remaining
Rule for the call: 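a well counts as a hit if its normalised viability is under 80 percent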
Meaning of the calls: active = viability under 80%; inactive = viability 80% or more

| target gene | technical replicate | viability, normalised (%) |
| --- | --- | --- |
| FOXP3 (forkhead box P3) | 1 | 49.5 (active) |
| FOXP3 (forkhead box P3) | 2 | 61.5 (active) |
| FOXP3 (forkhead box P3) | 3 | 53.8 (active) |
| NADK (NAD kinase) | 1 | 49.8 (active) |
| NADK (NAD kinase) | 2 | 51.3 (active) |
| NADK (NAD kinase) | 3 | 45.2 (active) |
| PELO (pelota mRNA surveillance and ribosome rescue factor) | 1 | 29.5 (active) |
| PELO (pelota mRNA surveillance and ribosome rescue factor) | 2 | 20.1 (active) |
| PELO (pelota mRNA surveillance and ribosome rescue factor) | 3 | 36.7 (active) |
| PRKACA (protein kinase cAMP-activated catalytic subunit alpha) | 1 | 66.5 (active) |
| PRKACA (protein kinase cAMP-activated catalytic subunit alpha) | 2 | 49.4 (active) |
| PRKACA (protein kinase cAMP-activated catalytic subunit alpha) | 3 | 61.2 (active) |
| HIPK4 (homeodomain interacting protein kinase 4) | 1 | 77.8 (active) |
| HIPK4 (homeodomain interacting protein kinase 4) | 2 | 53.6 (active) |
| HIPK4 (homeodomain interacting protein kinase 4) | 3 | 53.3 (active) |
| TAF12 (TATA-box binding protein associated factor 12) | 1 | 39.2 (active) |
| TAF12 (TATA-box binding protein associated factor 12) | 2 | 35.7 (active) |
| TAF12 (TATA-box binding protein associated factor 12) | 3 | 51 (active) |
| PRKAA1 (protein kinase AMP-activated catalytic subunit alpha 1) | 1 | 59.1 (active) |
| PRKAA1 (protein kinase AMP-activated catalytic subunit alpha 1) | 2 | 77.4 (active) |
| PRKAA1 (protein kinase AMP-activated catalytic subunit alpha 1) | 3 | 50.8 (active) |
| PARP16 (poly(ADP-ribose) polymerase family member 16) | 1 | 42.1 (active) |
| PARP16 (poly(ADP-ribose) polymerase family member 16) | 2 | 31.5 (active) |
| PARP16 (poly(ADP-ribose) polymerase family member 16) | 3 | 47 (active) |
| SMC4 (structural maintenance of chromosomes 4) | 1 | 38.3 (active) |
| SMC4 (structural maintenance of chromosomes 4) | 2 | 39.1 (active) |
| SMC4 (structural maintenance of chromosomes 4) | 3 | 35.2 (active) |
| MOV10 (Mov10 RNA helicase) | 1 | 45.2 (active) |
| MOV10 (Mov10 RNA helicase) | 2 | 49.3 (active) |
| MOV10 (Mov10 RNA helicase) | 3 | 56.4 (active) |
| BRD9 (bromodomain containing 9) | 1 | 28.2 (active) |
| BRD9 (bromodomain containing 9) | 2 | 44.5 (active) |
| BRD9 (bromodomain containing 9) | 3 | 49.3 (active) |

Continued; the last 3 above are carried over.
| target gene | technical replicate | viability, normalised (%) |
| --- | --- | --- |
| BRD9 (bromodomain containing 9) | 1 | 28.2 (active) |
| BRD9 (bromodomain containing 9) | 2 | 44.5 (active) |
| BRD9 (bromodomain containing 9) | 3 | 49.3 (active) |
| HMGN3 (high mobility group nucleosomal binding domain 3) | 1 | 71.3 (active) |
| HMGN3 (high mobility group nucleosomal binding domain 3) | 2 | 59.8 (active) |
| HMGN3 (high mobility group nucleosomal binding domain 3) | 3 | 72.9 (active) |
| CTNNB1 (catenin beta 1) | 1 | 52.3 (active) |
| CTNNB1 (catenin beta 1) | 2 | 43.6 (active) |
| CTNNB1 (catenin beta 1) | 3 | 43.6 (active) |
| NCOA6 (nuclear receptor coactivator 6) | 1 | 32.3 (active) |
| NCOA6 (nuclear receptor coactivator 6) | 2 | 35.8 (active) |
| NCOA6 (nuclear receptor coactivator 6) | 3 | 40.4 (active) |
| IL11 (interleukin 11) | 1 | 39 (active) |
| IL11 (interleukin 11) | 2 | 22.6 (active) |
| IL11 (interleukin 11) | 3 | 25.1 (active) |
| SLIT1 (slit guidance ligand 1) | 1 | 58.7 (active) |
| SLIT1 (slit guidance ligand 1) | 2 | 43.6 (active) |
| SLIT1 (slit guidance ligand 1) | 3 | 47 (active) |
| CDK11A (cyclin dependent kinase 11A) | 1 | 63.2 (active) |
| CDK11A (cyclin dependent kinase 11A) | 1 | 47.1 (active) |
| CDK11A (cyclin dependent kinase 11A) | 2 | 73.4 (active) |
| CDK11A (cyclin dependent kinase 11A) | 2 | 38.4 (active) |
| CDK11A (cyclin dependent kinase 11A) | 3 | 38.5 (active) |
| CDK11A (cyclin dependent kinase 11A) | 3 | 32 (active) |
| TLR4 (toll like receptor 4) | 1 | 33.2 (active) |
| TLR4 (toll like receptor 4) | 2 | 29.7 (active) |
| TLR4 (toll like receptor 4) | 3 | 28.9 (active) |
